For the assay, the target named is T1, Venus^N173-RAPTOR1B (Arabidopsis thaliana) (UniProt Q93YQ1).
T1 sequence: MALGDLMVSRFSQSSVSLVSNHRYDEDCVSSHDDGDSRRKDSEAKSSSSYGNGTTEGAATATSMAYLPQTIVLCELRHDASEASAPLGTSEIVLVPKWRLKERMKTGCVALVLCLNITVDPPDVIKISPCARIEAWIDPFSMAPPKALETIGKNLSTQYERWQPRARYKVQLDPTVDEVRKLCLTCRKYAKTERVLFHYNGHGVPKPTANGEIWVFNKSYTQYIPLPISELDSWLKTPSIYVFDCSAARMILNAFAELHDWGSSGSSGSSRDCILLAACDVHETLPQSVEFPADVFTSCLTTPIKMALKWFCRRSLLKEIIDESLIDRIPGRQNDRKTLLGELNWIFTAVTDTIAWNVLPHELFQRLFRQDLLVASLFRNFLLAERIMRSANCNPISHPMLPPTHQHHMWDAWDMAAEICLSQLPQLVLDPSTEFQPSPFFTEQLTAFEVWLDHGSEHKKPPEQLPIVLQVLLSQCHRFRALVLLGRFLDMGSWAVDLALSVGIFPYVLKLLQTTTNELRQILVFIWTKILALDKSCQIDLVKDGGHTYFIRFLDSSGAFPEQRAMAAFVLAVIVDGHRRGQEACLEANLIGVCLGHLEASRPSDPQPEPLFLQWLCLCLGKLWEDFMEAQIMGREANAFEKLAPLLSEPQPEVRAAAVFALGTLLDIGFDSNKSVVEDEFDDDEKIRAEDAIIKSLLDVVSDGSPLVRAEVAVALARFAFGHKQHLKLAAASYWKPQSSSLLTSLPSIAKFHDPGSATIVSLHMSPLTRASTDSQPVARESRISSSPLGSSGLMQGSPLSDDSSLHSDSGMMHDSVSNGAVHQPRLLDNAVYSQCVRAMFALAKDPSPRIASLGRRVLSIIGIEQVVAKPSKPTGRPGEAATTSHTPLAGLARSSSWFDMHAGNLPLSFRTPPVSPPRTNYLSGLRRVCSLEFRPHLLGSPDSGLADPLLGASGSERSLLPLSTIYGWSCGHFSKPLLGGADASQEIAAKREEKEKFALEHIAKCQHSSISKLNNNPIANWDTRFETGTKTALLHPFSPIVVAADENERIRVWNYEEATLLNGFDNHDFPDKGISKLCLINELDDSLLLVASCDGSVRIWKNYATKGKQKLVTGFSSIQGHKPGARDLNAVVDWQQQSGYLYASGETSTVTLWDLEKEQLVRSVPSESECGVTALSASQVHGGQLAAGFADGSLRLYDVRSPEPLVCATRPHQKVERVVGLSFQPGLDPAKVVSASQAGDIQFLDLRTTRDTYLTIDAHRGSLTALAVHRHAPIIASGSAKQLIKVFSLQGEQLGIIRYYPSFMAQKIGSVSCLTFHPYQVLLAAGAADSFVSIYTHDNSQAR
As to the kind of experiment: split reporter; BiFC with split Venus (VENUS^N173 on the bait, VENUS^C155 on the prey); N. benthamiana leaves transiently co-transformed by Agrobacterium-infiltration; confocal laser scanning microscopy 48 h after infiltration; same microscope settings for all samples.

These are yes or no findings as the source states them, for the method shown. Binding seen in cells or lysates may run through a third protein. Some binding calls cover weakened binding; strength is not graded here. Sequences can lack the tags named with a protein.

B1: cytosolic fructose-1,6-bisphosphatase (FBPase) fused to VENUS^C155 (enzyme, UniProt Q9MA79 1-341)
chain: MDHAADAHRTDLMTITRFVLNEQSKYPESRGDFTILLSHIVLGCKFVCSAVNKAGLAKLIGLAGETNIQGEEQKKLDVLSNDVFVNALVSSGRTSVLVSEEDEEATFVEPSKRGKYCVVFDPLDGSSNIDCGVSIGTIFGIYTLDHTDEPTTADVLKPGNEMVAAGYCMYGSSCMLVLSTGTGVHGFTLDPSLGEFILTHPDIKIPNKGNIYSVNEGNAQNWDGPTTKYVEKCKFPKDGSPAKSLRYVGSMVADVHRTLLYGGIFLYPADKKSPNGKLRVLYEVFPMSFLMEQAGGQAFTGKKRALDLVPEKIHERSPIFLGSYDDVEEIKALYAEEEKKN
Take B1: the binding entry is “no binding”.

B2: SnRK1α1-Venus^C155 (protein, UniProt Q38997 1-512)
chain: MDGSGTGSRSGVESILPNYKLGRTLGIGSFGRVKIAEHALTGHKVAIKILNRRKIKNMEMEEKVRREIKILRLFMHPHIIRLYEVIETPTDIYLVMEYVNSGELFDYIVEKGRLQEDEARNFFQQIISGVEYCHRNMVVHRDLKPENLLLDSKCNVKIADFGLSNIMRDGHFLKTSCGSPNYAAPEVISGKLYAGPEVDVWSCGVILYALLCGTLPFDDENIPNLFKKIKGGIYTLPSHLSPGARDLIPRMLVVDPMKRVTIPEIRQHPWFQAHLPRYLAVPPPDTVQQAKKIDEEILQEVINMGFDRNHLIESLRNRTQNDGTVTYYLILDNRFRASSGYLGAEFQETMEGTPRMHPAESVASPVSHRLPGLMEYQGVGLRSQYPVERKWALGLQSRAHPREIMTEVLKALQDLNVCWKKIGHYNMKCRWVPNSSADGMLSNSMHDNNYFGDESSIIENEAAVKSPNVVKFEIQLYKTRDDKYLLDLQRVQGPQFLFLDLCAAFLAQLRVL
Take B2: the binding entry is “binds”.

(Values after publication PMC4992866.)
